Measured values as given in the supplement of paper PMC10849652.
This is one part of the list.

Sequences of proteins named here, by UniProt entry; tags and fusion partners are left off. A change or cut given only in a name is not applied to a line headed by its entry.
UniProt Q9NWZ3, whole entry, looked up: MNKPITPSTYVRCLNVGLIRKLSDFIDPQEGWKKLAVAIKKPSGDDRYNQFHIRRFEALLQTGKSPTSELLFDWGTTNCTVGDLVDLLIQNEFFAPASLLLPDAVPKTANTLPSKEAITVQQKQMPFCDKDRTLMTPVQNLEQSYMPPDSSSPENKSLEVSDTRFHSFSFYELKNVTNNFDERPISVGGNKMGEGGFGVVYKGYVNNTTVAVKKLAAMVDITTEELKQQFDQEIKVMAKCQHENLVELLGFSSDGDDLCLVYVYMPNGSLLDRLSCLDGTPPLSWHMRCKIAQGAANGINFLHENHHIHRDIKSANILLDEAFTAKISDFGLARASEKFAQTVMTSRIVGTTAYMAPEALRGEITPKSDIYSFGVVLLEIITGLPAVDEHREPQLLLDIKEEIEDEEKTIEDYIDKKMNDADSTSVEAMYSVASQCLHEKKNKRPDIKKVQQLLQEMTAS
UniProt Q8IY31, whole entry, looked up: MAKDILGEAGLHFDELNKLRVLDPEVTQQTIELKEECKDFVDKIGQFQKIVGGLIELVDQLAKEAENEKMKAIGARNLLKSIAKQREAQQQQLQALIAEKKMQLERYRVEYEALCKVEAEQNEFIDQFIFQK
UniProt P28290: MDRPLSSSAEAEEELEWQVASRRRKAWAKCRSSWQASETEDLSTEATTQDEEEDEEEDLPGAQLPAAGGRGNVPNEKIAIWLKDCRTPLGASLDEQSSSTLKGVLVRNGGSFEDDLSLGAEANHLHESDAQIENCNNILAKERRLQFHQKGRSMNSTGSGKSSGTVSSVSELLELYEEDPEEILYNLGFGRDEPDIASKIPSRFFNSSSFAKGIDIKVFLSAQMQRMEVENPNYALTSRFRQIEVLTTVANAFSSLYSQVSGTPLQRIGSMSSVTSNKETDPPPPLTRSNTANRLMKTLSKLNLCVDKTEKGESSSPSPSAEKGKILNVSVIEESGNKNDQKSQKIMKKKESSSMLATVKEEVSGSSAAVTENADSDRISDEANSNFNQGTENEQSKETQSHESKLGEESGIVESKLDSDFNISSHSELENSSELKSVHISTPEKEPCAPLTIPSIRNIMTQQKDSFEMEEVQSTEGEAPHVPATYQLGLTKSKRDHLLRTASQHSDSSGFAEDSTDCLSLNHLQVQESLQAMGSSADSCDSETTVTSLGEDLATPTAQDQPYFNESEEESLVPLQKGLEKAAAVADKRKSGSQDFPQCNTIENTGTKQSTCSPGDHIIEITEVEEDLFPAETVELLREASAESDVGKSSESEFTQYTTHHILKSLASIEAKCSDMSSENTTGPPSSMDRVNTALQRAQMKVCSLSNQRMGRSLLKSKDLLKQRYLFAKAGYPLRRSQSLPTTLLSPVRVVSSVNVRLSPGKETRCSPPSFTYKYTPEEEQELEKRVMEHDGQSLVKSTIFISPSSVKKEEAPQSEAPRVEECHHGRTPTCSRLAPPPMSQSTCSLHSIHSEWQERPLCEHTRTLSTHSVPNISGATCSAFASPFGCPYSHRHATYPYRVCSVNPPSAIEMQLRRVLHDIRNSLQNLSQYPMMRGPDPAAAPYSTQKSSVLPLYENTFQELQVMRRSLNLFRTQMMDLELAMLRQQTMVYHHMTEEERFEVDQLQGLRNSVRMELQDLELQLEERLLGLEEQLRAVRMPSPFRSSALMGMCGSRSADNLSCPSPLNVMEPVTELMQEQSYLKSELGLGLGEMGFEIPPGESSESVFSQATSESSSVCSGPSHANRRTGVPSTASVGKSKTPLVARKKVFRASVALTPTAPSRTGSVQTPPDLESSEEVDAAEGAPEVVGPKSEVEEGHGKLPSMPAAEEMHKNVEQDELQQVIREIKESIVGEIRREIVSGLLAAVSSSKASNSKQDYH
UniProt Q92551: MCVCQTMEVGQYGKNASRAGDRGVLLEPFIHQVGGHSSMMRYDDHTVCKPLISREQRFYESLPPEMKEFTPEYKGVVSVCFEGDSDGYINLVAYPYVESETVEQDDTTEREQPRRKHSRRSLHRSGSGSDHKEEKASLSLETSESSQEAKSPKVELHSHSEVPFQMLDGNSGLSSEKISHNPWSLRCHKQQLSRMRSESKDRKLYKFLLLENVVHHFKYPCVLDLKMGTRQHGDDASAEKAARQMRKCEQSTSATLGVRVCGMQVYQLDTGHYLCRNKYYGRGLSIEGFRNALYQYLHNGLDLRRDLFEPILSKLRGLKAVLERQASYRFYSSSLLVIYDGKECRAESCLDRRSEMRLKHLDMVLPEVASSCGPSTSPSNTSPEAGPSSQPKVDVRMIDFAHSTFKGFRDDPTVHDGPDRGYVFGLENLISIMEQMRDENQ
UniProt Q12906, whole entry, looked up: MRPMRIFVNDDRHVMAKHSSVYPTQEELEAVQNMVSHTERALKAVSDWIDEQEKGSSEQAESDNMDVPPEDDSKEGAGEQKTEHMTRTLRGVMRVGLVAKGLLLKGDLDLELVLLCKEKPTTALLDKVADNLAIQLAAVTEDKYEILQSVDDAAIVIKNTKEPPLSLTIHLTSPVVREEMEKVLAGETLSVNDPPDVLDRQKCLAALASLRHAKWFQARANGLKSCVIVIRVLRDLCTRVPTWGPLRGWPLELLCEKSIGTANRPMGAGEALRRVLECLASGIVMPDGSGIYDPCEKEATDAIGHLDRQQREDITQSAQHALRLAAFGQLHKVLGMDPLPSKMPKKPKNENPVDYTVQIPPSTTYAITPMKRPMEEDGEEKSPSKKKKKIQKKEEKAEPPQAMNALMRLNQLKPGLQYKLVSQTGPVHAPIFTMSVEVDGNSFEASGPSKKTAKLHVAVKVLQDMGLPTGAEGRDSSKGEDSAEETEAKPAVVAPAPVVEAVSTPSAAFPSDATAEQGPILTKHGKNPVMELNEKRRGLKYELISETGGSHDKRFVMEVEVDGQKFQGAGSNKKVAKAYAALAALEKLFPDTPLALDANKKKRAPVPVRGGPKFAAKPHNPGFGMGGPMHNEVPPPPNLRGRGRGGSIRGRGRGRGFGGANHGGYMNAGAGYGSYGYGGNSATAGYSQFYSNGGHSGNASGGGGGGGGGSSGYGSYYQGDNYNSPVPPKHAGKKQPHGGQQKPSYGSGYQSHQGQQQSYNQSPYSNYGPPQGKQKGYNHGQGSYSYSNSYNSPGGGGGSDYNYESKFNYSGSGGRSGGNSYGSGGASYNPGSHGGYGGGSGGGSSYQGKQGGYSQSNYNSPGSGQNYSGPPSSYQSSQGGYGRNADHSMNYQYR
UniProt P38570: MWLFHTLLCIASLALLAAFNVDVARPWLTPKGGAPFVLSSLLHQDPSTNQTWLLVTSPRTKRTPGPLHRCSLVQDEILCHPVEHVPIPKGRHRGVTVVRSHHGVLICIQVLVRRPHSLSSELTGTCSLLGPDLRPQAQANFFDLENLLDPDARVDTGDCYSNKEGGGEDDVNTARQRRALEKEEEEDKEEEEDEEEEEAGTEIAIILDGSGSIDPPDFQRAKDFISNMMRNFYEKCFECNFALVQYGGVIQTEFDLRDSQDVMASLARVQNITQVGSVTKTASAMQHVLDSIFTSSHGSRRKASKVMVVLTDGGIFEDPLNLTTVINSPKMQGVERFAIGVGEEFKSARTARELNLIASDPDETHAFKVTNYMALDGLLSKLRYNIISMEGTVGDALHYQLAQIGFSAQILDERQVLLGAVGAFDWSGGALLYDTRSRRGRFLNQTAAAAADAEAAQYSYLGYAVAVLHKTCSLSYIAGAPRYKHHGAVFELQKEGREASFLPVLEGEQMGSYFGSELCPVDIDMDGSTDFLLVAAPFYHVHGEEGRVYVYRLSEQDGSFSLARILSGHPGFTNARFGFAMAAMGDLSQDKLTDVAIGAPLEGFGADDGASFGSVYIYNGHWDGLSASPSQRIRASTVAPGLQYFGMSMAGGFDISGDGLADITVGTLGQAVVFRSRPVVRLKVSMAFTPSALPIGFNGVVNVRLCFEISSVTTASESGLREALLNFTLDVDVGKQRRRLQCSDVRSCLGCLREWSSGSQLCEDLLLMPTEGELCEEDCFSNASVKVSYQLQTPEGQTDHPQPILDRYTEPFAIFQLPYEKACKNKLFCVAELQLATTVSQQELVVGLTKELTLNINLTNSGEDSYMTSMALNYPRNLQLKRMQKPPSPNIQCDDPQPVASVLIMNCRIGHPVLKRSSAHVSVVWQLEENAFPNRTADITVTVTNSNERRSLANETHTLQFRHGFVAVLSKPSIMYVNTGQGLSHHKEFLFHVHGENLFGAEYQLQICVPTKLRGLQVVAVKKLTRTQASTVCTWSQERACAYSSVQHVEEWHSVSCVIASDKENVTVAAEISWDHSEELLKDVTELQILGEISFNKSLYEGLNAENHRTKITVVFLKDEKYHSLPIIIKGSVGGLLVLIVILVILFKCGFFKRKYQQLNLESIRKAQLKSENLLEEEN
UniProt Q9NXR8, whole entry, looked up: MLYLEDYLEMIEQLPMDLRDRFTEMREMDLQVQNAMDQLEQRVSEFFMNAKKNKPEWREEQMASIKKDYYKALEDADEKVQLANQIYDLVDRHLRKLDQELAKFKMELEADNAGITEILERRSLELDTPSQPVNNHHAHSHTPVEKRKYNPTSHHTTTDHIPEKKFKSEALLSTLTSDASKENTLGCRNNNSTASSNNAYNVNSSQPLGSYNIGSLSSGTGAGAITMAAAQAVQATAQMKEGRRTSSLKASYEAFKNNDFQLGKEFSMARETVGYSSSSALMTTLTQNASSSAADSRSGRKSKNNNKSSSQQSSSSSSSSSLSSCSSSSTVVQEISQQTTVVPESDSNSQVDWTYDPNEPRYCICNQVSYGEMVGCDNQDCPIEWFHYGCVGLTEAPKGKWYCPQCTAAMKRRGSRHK
UniProt O14732: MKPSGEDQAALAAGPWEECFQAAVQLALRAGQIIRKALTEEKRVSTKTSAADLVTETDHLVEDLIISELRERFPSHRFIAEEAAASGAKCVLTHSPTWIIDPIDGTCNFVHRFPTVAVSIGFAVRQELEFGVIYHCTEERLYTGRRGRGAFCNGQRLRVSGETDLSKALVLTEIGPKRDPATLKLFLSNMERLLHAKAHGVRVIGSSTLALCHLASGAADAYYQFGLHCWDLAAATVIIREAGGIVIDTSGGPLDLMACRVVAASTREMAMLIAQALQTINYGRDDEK
UniProt Q8N6C5: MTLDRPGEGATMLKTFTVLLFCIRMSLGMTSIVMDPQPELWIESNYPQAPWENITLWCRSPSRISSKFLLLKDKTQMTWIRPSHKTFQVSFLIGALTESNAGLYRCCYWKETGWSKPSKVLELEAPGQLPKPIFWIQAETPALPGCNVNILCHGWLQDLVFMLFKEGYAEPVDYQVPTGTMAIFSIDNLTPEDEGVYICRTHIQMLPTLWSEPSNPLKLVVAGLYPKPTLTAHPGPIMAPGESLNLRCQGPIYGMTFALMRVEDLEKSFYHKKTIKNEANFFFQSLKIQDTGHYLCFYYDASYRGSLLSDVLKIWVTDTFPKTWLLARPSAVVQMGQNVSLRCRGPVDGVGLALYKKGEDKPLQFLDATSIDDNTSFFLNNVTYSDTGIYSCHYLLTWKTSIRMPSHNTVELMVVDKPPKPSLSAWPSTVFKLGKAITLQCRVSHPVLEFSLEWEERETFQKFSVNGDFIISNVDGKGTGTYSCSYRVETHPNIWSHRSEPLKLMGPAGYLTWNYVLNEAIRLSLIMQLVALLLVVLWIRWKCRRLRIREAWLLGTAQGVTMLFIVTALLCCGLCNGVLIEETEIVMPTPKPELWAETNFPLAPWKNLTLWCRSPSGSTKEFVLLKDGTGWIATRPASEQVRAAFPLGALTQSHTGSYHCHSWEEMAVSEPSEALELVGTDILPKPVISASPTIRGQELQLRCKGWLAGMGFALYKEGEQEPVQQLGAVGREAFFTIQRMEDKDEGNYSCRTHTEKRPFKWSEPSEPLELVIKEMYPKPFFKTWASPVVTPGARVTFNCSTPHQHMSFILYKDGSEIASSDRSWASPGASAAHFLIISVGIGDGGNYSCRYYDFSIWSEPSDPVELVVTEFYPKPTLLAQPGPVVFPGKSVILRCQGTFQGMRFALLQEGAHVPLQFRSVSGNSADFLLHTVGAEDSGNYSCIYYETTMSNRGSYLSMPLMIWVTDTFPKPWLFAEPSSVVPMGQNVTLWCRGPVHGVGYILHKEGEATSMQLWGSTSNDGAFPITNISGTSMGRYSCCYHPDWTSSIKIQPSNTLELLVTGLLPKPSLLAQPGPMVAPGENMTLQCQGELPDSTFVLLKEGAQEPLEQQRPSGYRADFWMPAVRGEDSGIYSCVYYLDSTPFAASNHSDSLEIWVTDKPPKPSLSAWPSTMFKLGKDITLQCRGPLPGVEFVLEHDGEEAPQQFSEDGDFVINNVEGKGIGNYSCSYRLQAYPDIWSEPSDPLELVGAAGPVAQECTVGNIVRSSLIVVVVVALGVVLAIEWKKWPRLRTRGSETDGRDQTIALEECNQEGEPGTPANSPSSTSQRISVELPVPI
UniProt Q9Y5U9: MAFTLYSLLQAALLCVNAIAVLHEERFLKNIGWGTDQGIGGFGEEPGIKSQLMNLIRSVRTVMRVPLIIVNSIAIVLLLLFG

Legend:
Test in all cases: log2 fold change, soluble protein after heating vs DMSO (PISA); higher = thermal stabilisation; K562 cells, 10 uM, 30 min; active = over 0.2 and 3.5 SD of the protein, either way, in both replicates (recomputed)
[1] = compound: CC[C@@H]1C(=O)N(C)c2cnc(Nc3ccc(C(=O)NC4CCN(C)CC4)cc3OC)nc2N1C1CCCC1
Method in brief: (§1)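 K562 cells at 2×10^6 cells/mL were treated with 10 μM compound for 30 min. Aliquots were heated for 3 min across 48°C-58°C, pooled, and extracted in PBS with 0.5% NP-40 at 4°C; soluble protein was the supernatant after 21,000xg for 90 min. Soluble protein was quantified by TMTpro 16plex LC-MS/MS with channel sums equalised, and reported as log2 fold change in thermal stability against DMSO controls, with values from duplicates.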

volasertib = compound: CC[C@@H]1C(=O)N(C)c2cnc(Nc3ccc(C(=O)N[C@H]4CC[C@H](N5CCN(CC6CC6)CC5)CC4)cc3OC)nc2N1C(C)C [volasertib]
Method in brief: as §1

[2] = compound: CC[C@H](C)N1C=C(C2=C(C=C(C=C21)C3=CN=C(C=C3)N4CCNCC4)C(=O)NCC5=C(C=C(NC5=O)C)C)C
Method in brief: as §1

epoxomicin = compound: CC[C@H](C)[C@@H](C(=O)N[C@@H]([C@@H](C)O)C(=O)N[C@@H](CC(C)C)C(=O)[C@]1(CO1)C)NC(=O)[C@H]([C@@H](C)CC)N(C)C(=O)C [epoxomicin]
Method in brief: as §1

[3] = compound: CCn1cc(-c2ccnc3[nH]c(-c4cccc(CN(C)C)c4)cc23)c(-c2ccc(NC(=O)N(C)C)cc2)n1
Method in brief: as §1

[4] = compound: CN(C)CC(=O)Nc1ccc2[nH]c(=O)c3ccccc3c2c1
Method in brief: as §1

[5] = compound: CN1C2=C(C3=C1C(=O)N(N=C3)CC4=CC(=CC=C4)N)SC(=C2)S(=O)C
Method in brief: as §1

[6] = compound: CN1CCC(CNc2ccc3ncc(-c4cccc(OC(F)(F)F)c4)n3n2)CC1
Method in brief: as §1

saracatinib = compound: CN1CCN(CCOc2cc(OC3CCOCC3)c3c(Nc4c(Cl)ccc5c4OCO5)ncnc3c2)CC1 [saracatinib]
Method in brief: as §1

sotrastaurin = compound: CN1CCN(c2nc(C3=C(c4c[nH]c5ccccc45)C(=O)NC3=O)c3ccccc3n2)CC1 [sotrastaurin]
Method in brief: as §1

Tubastatin A = compound: CN1CCc2c(c3ccccc3n2Cc2ccc(C(=O)NO)cc2)C1 [Tubastatin A]
Method in brief: as §1

[7] = compound: CNC(=O)C1=CC=CC=C1NC2=NC(=NC=C2Cl)NC3=C(C=C(C=C3)N4CCOCC4)OC
Method in brief: as §1

defactinib = compound: CNC(=O)c1ccc(Nc2ncc(C(F)(F)F)c(NCc3nccnc3N(C)S(C)(=O)=O)n2)cc1 [defactinib]
Method in brief: as §1

rucaparib = compound: CNCc1ccc(-c2[nH]c3cc(F)cc4c3c2CCNC4=O)cc1 [rucaparib]
Method in brief: as §1

[8] = compound: CNc1nc(-c2ccc3c(N)n[nH]c3c2)cc(N2C[C@@H](C(=O)NC3CCCCC3)CC[C@H]2C)n1
Method in brief: as §1

encorafenib = compound: COC(=O)N[C@@H](C)CNc1nccc(-c2cn(C(C)C)nc2-c2cc(Cl)cc(NS(C)(=O)=O)c2F)n1 [encorafenib]
Method in brief: as §1

[9] = compound: COC(=O)[C@H](CCSC)NC(=O)C1=C(C=C(C=C1)NC[C@H](CS)N)C2=CC=CC=C2
Method in brief: as §1

[10] = compound: CCn1c(C(=O)N(C2CC2)C2CC2)cc2c3c(ncn3C)c(Nc3cc(C)n(C)n3)nc21
Method in brief: as §1

rosiglitazone = compound: CN(CCOC1=CC=C(C=C1)C[C@H]2C(=O)NC(=O)S2)C3=CC=CC=N3 (racemic) [rosiglitazone]
Method in brief: as §1

alvocidib = compound: CN1CC[C@H](c2c(O)cc(O)c3c(=O)cc(-c4ccccc4Cl)oc23)[C@H](O)C1 [alvocidib]
Method in brief: as §1

Measured: log2 fold change

IRAK4 (UniProt Q9NWZ3)
inactive: [1] -0.138 | volasertib -0.299 | [2] 0.048 | epoxomicin 0.038 | [3] -0.033 | [4] 0.061 | [5] 0.029 | [6] 0.013 | saracatinib -0.026 | sotrastaurin -0.061 | Tubastatin A 0.006 | [7] 0.162 | defactinib -0.022 | rucaparib 0.076 | [8] 0.01 | encorafenib 0.006 | [9] -0.071

IFT20 isoform 2 (UniProt Q8IY31)
inactive: [1] -0.161 | [2] 0.115 | [10] 0.171 | sotrastaurin -0.119 | [7] 0.137 | rucaparib -0.019 | encorafenib 0.081

ITPRID2 (UniProt P28290)
inactive: [1] 0.01 | volasertib -0.373 | epoxomicin -0.109 | [4] -0.106 | [7] -0.299 | defactinib -0.158 | rucaparib -0.019 | encorafenib -0.087 | [9] 0.059

IP6K1 (UniProt Q92551)
inactive: [1] 0.127 | volasertib -0.176 | epoxomicin 0 | [3] 0.028 | [5] 0.147 | [6] -0.052 | saracatinib -0.174 | sotrastaurin -0.113 | Tubastatin A -0.06 | [7] 0.331 | rucaparib -0.045 | [8] 0.119 | encorafenib 0.094

ILF3 (UniProt Q12906)
inactive: [1] 0.222 | [2] 0.144 | epoxomicin 0.004 | sotrastaurin 0.009 | rucaparib 0.384 | encorafenib 0.081

ITGAE (UniProt P38570)
inactive: volasertib 0.06 | [2] -0.324 | epoxomicin 0.051 | [10] -0.107 | [3] -0.203 | [4] -0.014 | rosiglitazone 0.036 | [6] -0.225 | sotrastaurin -0.364 | alvocidib 0.113 | [7] -0.328 | defactinib 0.004 | [9] -0.018

ISL2 (UniProt Q96A47)
inactive: [1] -0.018 | [3] 0.124 | rosiglitazone 0.284 | [6] 0.024 | alvocidib 0.003 | rucaparib 0.147 | encorafenib 0.029

ING3 (UniProt Q9NXR8)
inactive: [1] 0.022 | [3] -0.041 | [6] 0.221 | rucaparib -0.105 | encorafenib -0.027

IMPA2 (UniProt O14732)
inactive: [1] 0.004 | volasertib 0.026 | [10] -0.011 | [3] -0.116 | [4] 0.215 | rosiglitazone -0.006 | [5] 0.006 | [6] -0.035 | saracatinib -0.085 | sotrastaurin -0.102 | alvocidib 0.024 | Tubastatin A -0.053 | [7] -0.047 | defactinib -0.022 | rucaparib -0.057 | [8] -0.023 | encorafenib -0.133 | [9] 0.073

IGLC3 (UniProt P0DOY3)
inactive: [1] 0.145 | [2] 1.76 | rucaparib -0.078 | encorafenib -0.175

IGSF1 isoform 4 (UniProt Q8N6C5)
inactive: [1] -0.211 | volasertib -0.116 | rucaparib 0 | encorafenib 0.005

Quoted at random: two entries already listed.
IGSF1 isoform 4 (UniProt Q8N6C5)
inactive: [1] -0.211 | volasertib -0.116 | rucaparib 0 | encorafenib 0.005

ISL2 (UniProt Q96A47)
inactive: [1] -0.018 | [3] 0.124 | rosiglitazone 0.284 | [6] 0.024 | alvocidib 0.003 | rucaparib 0.147 | encorafenib 0.029

(next part)

IER3IP1 (UniProt Q9Y5U9)
inactive: [1] -0.013 | volasertib -0.296 | epoxomicin -0.078 | [10] -0.224 | [3] 0.019 | [4] 0.04 | rosiglitazone 0.049 | [5] 0.079 | [6] 0.107 | saracatinib 0.29 | sotrastaurin -0.083 | alvocidib 0.042 | Tubastatin A -0.109 | [7] -0.063 | defactinib 0.148 | rucaparib 0.013 | [8] -0.05 | encorafenib 0.03 | [9] -0.068
